Test results published in the supplement of paper PMC12823440, “Inhibitors supercharge kinase turnover through native proteolytic circuits” (Nature, 2025).
Counter-ions that a name gives are not always drawn. This is one part of the list. The calls rarely recur for the same compound in another form.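 Kinases, fused to nanoluciferase, were expressed in K562 cells; luminescence was measured every 4 h from 2 to 18 h as percent of control (DMSO = 100%, positive control = 0%). A time point is decreased if signal falls significantly (2 sigma). Hits were called by the authors by a rule that is not shown; the count of time points alone does not decide it.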

Chains of the proteins cited; added tags and fusions are not shown. Lines headed by an entry give the natural chain unless they say otherwise; changes in a name come on top.
UniProt Q9UQM7, whole entry: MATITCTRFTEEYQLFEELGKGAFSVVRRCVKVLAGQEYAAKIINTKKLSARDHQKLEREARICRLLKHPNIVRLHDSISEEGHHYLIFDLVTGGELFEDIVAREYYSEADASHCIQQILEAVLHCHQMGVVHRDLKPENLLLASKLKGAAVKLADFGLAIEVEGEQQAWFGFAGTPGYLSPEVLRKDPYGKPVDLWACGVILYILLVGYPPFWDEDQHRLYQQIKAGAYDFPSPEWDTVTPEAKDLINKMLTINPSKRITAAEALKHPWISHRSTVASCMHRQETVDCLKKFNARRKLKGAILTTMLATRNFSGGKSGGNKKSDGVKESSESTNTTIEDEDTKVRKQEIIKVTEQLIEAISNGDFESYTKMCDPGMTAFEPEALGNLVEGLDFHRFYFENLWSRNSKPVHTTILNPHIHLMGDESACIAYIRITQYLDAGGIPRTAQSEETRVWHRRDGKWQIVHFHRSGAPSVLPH
UniProt Q13555: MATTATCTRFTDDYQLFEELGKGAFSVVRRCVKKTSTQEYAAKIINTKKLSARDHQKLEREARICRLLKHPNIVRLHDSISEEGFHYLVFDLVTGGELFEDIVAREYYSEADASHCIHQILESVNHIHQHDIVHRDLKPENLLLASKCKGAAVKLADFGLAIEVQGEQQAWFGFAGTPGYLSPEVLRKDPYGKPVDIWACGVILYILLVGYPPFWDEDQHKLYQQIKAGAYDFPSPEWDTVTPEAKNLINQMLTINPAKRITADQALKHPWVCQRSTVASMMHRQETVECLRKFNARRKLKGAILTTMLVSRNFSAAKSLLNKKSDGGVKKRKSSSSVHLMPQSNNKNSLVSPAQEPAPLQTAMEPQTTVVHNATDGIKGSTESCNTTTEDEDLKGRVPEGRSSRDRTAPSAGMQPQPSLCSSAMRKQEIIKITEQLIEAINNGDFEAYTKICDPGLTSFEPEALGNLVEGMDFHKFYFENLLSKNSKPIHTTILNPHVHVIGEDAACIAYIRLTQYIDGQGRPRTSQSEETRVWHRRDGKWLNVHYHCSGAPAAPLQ
UniProt Q15131: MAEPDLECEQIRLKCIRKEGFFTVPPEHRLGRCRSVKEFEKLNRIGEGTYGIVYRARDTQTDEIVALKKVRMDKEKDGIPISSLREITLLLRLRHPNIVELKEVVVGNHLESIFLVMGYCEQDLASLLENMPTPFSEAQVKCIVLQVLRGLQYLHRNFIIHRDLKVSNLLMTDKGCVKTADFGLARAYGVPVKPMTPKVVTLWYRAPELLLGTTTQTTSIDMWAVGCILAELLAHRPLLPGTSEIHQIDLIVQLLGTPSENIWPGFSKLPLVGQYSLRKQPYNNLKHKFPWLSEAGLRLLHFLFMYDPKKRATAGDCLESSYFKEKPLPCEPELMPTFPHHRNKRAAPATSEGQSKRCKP
UniProt Q00526: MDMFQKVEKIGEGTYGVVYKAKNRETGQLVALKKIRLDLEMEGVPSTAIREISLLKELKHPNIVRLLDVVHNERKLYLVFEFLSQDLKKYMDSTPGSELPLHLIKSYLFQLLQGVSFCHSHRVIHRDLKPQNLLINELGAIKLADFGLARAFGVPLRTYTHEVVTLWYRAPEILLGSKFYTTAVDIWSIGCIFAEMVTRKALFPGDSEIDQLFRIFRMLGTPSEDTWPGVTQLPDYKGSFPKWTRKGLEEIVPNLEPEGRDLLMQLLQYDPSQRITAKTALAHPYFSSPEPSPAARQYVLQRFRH
UniProt Q00534, whole entry: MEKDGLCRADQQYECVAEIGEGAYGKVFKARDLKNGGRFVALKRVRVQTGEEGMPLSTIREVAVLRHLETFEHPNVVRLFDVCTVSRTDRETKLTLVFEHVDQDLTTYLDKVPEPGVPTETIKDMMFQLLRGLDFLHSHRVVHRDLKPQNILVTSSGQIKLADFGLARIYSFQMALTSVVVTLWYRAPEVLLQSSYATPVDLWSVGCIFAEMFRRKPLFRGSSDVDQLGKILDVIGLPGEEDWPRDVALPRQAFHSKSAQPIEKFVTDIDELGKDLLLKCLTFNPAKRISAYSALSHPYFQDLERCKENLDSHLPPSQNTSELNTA
UniProt O96017, whole entry: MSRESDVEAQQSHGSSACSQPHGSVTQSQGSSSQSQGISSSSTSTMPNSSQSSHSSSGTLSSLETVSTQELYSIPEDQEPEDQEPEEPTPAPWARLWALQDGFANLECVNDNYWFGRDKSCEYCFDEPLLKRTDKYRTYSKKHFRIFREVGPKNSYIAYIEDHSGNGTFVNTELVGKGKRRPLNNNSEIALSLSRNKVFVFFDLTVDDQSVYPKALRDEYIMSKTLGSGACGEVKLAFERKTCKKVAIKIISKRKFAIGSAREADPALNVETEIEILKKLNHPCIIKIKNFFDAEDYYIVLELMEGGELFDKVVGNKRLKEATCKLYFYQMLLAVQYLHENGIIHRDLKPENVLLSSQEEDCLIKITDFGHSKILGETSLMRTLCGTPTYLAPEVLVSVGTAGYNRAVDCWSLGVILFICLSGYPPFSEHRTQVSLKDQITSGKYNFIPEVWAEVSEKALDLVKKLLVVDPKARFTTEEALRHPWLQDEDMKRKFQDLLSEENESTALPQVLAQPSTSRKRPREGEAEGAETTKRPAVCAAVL
UniProt P07333, whole entry: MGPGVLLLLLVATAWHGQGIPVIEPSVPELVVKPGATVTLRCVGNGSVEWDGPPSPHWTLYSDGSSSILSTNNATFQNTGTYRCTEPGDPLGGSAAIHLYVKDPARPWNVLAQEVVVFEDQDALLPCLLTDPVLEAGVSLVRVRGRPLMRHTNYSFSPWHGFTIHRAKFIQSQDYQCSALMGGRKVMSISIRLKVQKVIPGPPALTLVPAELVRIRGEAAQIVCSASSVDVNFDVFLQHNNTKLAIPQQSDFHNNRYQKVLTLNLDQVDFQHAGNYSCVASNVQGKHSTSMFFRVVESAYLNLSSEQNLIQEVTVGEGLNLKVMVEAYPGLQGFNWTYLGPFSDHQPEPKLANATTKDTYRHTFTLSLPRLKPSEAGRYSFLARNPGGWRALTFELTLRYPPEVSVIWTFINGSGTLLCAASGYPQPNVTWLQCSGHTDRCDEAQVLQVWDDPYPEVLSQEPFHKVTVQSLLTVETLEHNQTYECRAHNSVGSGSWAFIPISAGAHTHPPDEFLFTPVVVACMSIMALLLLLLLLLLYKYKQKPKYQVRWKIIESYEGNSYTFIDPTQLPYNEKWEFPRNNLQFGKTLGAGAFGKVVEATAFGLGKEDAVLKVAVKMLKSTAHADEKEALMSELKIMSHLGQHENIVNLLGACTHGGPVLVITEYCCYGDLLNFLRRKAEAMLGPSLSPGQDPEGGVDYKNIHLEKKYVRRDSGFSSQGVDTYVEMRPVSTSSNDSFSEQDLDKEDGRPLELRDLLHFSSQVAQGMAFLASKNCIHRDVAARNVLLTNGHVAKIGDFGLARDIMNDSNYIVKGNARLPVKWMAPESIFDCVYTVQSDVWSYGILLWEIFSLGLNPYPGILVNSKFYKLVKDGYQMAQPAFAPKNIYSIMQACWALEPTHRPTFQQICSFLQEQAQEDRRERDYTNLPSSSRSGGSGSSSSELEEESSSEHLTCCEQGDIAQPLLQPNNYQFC
UniProt P48729: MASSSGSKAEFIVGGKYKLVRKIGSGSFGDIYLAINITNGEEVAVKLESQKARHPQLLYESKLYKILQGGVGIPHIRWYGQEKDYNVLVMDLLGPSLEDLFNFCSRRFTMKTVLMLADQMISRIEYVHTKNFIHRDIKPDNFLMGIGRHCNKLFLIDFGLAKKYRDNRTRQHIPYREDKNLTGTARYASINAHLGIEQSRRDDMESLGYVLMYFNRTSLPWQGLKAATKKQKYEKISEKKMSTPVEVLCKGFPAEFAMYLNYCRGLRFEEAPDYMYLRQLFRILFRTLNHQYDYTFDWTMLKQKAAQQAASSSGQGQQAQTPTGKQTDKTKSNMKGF
UniProt P48730: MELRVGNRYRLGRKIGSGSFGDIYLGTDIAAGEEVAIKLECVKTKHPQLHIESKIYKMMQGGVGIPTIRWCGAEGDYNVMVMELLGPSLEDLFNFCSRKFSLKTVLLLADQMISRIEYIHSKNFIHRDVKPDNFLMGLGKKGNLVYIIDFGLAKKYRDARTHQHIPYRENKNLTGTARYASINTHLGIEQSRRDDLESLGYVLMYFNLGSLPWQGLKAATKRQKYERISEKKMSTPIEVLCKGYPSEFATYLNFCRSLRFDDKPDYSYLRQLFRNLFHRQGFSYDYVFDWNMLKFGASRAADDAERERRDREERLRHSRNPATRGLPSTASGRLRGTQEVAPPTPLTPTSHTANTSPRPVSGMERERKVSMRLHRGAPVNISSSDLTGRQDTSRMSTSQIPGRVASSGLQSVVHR
UniProt Q08345: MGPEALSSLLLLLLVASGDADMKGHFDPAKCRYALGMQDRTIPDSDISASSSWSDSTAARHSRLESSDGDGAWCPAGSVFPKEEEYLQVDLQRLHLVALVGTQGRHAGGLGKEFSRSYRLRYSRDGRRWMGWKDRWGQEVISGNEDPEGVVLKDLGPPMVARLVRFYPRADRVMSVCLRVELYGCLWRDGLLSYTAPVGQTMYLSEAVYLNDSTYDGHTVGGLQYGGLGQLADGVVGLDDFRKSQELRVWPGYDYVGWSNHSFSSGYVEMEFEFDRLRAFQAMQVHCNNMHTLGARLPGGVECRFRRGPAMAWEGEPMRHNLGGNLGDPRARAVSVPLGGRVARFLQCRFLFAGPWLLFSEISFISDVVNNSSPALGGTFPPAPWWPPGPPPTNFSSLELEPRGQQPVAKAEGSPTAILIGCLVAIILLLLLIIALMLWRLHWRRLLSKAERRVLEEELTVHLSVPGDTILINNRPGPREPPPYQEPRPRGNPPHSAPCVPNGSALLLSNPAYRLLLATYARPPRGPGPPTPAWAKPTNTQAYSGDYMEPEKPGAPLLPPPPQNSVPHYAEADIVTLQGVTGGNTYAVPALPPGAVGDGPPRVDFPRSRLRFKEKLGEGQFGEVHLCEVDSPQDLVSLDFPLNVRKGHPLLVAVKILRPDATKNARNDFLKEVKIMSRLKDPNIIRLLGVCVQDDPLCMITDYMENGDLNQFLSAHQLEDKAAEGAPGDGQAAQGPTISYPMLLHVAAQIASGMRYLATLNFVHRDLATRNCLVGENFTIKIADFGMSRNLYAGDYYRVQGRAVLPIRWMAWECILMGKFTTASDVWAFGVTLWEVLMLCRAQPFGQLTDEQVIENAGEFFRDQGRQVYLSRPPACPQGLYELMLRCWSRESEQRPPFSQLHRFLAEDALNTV
UniProt Q9Y463, whole entry, looked up: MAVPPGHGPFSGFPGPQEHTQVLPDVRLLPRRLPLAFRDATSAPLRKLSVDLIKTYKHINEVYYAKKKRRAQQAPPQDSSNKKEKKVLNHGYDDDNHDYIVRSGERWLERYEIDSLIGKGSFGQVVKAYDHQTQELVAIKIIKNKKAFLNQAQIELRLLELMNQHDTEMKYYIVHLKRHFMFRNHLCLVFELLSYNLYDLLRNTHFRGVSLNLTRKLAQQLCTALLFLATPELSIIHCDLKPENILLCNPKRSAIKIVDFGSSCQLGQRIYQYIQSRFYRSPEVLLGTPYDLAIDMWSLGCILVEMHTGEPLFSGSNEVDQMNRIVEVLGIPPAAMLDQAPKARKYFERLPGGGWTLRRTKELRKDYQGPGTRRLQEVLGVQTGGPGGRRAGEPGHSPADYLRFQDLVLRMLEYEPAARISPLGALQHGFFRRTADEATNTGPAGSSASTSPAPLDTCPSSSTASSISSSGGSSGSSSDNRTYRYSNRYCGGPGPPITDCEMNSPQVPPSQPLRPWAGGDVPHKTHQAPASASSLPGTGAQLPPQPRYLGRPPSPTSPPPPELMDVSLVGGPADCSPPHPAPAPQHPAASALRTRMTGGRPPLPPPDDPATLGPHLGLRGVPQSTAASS
UniProt Q92630: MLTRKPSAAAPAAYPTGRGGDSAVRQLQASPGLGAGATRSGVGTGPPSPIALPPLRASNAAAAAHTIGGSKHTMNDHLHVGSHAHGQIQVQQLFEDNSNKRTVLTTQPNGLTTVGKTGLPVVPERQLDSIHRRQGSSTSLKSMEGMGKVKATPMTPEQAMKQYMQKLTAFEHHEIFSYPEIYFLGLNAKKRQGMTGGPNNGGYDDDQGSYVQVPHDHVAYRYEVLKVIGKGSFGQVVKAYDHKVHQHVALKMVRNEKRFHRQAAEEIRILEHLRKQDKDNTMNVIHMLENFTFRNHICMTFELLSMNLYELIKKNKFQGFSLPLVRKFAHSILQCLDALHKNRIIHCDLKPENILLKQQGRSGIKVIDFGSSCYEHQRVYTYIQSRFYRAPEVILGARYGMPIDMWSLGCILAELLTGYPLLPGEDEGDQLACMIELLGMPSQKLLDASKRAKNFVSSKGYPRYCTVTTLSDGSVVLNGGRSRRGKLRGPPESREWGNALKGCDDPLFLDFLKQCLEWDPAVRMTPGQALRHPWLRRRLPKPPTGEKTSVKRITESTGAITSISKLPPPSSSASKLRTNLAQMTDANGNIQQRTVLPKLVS

Experiments:
Test in all cases: number of time points (of 5) at which kinase-Nluc abundance scored as decreased, DMSO-normalised (count); higher = more persistent destabilization
Conditions in all cases: K562; 2-18 h
CAMK2A = CAMK2A (UniProt Q9UQM7)
CAMK2G = CAMK2G (UniProt Q13555)
CDK10 = CDK10 (UniProt Q15131)
CDK2 = CDK2 (UniProt P24941)
CDK3 = CDK3 (UniProt Q00526)
CDK5 = CDK5 (UniProt Q00535)
CDK6 = CDK6 (UniProt Q00534)
CHEK2 = CHEK2 (UniProt O96017)
CSF1R = CSF1R (UniProt P07333)
CSK = CSK (UniProt P41240)
CSNK1A1 = CSNK1A1 (UniProt P48729)
CSNK1D = CSNK1D (UniProt P48730)
DDR1 = DDR1 (UniProt Q08345)
DYRK1B = DYRK1B (UniProt Q9Y463)
DYRK2 = DYRK2 (UniProt Q92630)
EGFR = EGFR (UniProt P00533)
EGFR_G719S = EGFR_G719S (UniProt P00533)
EGFR_G719S_T790M = EGFR_G719S_T790M (UniProt P00533)
EGFR_L718V = EGFR_L718V (UniProt P00533)
EGFR_L858R = EGFR_L858R (UniProt P00533)

Measured: number of time points

COc1cc(C(=O)NC2CCN(C)CC2)c(F)cc1Nc1ncc2c(n1)N(C1CCCC1)CC(F)(F)C(=O)N2C [TAK-960 (dihydrochloride)] (2.5 µM)
0: all assays above

COc1cc2nc(C)nc(N[C@H](C)c3cc(N)cc(C(F)(F)F)c3)c2cc1O[C@H]1CCOC1 (10 µM)
not listed: EGFR | EGFR_G719S | EGFR_G719S_T790M | EGFR_L718V | EGFR_L858R
0: all other assays above

COc1nccc(-c2c(-c3ccc(F)cc3)ncn2C2CCC(O)CC2)n1 (configuration not stated) (10 µM)
not listed: EGFR | EGFR_G719S | EGFR_G719S_T790M | EGFR_L718V | EGFR_L858R
0: all other assays above

Cc1c(Cn2c(C)nc3c(C(=O)O)cc(N4CCOCC4)cc32)cccc1C(F)(F)F (10 µM)
not listed: EGFR_G719S_T790M | EGFR_L718V | EGFR_L858R
0: all other assays above

N#C/C(=C\c1ccc(O)c(O)c1)C(=O)NCc1ccccc1 (10 µM)
not listed: EGFR | EGFR_G719S | EGFR_G719S_T790M | EGFR_L718V | EGFR_L858R
0: all other assays above

C[C@]1(O)C[C@@H](c2nc(-c3ccc4ccc(-c5ccccc5)nc4c3)c3c(N)nccn32)C1 [Linsitinib] (2.5 µM)
not listed: EGFR | EGFR_G719S | EGFR_G719S_T790M | EGFR_L718V | EGFR_L858R
0: all other assays above

CCOc1cc2ncc(C#N)c(Nc3ccc(OCc4ccccn4)c(Cl)c3)c2cc1NC(=O)/C=C/CN(C)C [Neratinib] (10 µM)
not listed: EGFR | EGFR_G719S | EGFR_G719S_T790M | EGFR_L718V | EGFR_L858R
0: all other assays above

COc1ccc(C=C(C#N)c2cccnc2)cc1OC (10 µM)
not listed: EGFR | EGFR_G719S | EGFR_G719S_T790M | EGFR_L718V | EGFR_L858R
0: all other assays above

C=CC(=O)Nc1ccc2ncnc(Nc3cccc(Br)c3)c2c1 (10 µM)
1: DDR1
2: CHEK2
4: DYRK1B | DYRK2
not listed: EGFR | EGFR_G719S | EGFR_G719S_T790M | EGFR_L718V | EGFR_L858R
0: all other assays above

O=c1cc(-c2ccccc2)oc2c(O)c(O)ccc12 [7,8-Dihydroxyflavone] (10 µM)
0: all assays above

O=C([O-])c1ccccc1O.[Na+] [Sodium Salicylate] (10 µM)
0: all assays above

CN1CCN(C(=O)c2ccc(-c3ccc4c(C=O)c(O)ccc4c3)s2)CC1 (2.5 µM)
0: all assays above

CN1CCN(C2CCN(C(=O)Nc3cc(Oc4ccc(NC(=O)C5(C(=O)Nc6ccc(F)cc6)CC5)c(F)c4)ccn3)CC2)CC1 [Golvatinib] (2.5 µM)
4: DYRK2
2: DDR1 | EGFR_G719S
0: all other assays above

CN(C)CCOc1ccc(-c2nc(-c3ccncc3)c(-c3ccc4c(c3)CC/C4=N\O)[nH]2)cc1 (10 µM)
3: DYRK1B
0: all other assays above

C=CC(=O)N1CCN(CCCn2c(=O)c(-c3c(Cl)c(OC)cc(OC)c3Cl)cc3cnc(NC)nc32)CC1 (10 µM)
0: all assays above

CN(C)C[C@@H]1CCn2cc(c3ccccc32)C2=C(C(=O)NC2=O)c2cn(c3ccccc23)CCO1 [Ruboxistaurin (hydrochloride)] (10 µM)
0: all assays above

CC(C)n1cnc2c(NCc3cccc(C(F)(F)F)c3)ncnc21 [Longdaysin] (10 µM)
0: all assays above

CNC(=O)c1cc(Oc2ccc(NC(=O)Nc3cc(C(C)(C)C)nn3-c3ccc4ncccc4c3)c(F)c2)ccn1 [Rebastinib] (2.5 µM)
1: DYRK1B | EGFR_L718V
3: CAMK2G | CHEK2 | CSNK1A1 | DDR1 | EGFR_L858R
2: CDK10 | CSNK1D | EGFR | EGFR_G719S | EGFR_G719S_T790M
4: CSF1R | DYRK2
0: all other assays above

C=CC(=O)N1C[C@H](Nc2ncnc3[nH]ccc23)CC[C@@H]1C [Ritlecitinib] (10 µM)
0: all assays above

Cc1c[nH]c2ccccc12 [Skatole] (10 µM)
0: all assays above

Cc1cc(CS(=O)(=O)c2ccccc2)cc(OCc2ccc(CN3CCC[C@@H]3CO)cc2)c1 [PF-543 (Citrate)] (10 µM)
0: all assays above

CN1CCN(S(=O)(=O)c2ccc(-c3cnc(N)c(C(=O)Nc4cccnc4)n3)cc2)CC1 (10 µM)
0: all assays above

COc1c(CC=C(C)C)c(O)cc2oc(=O)c(-c3ccc(O)cc3O)cc12 [Glycycoumarin] (10 µM)
0: all assays above

Oc1cc(O)cc(/C=C/c2ccc(O)c(O)c2)c1 [Piceatannol] (10 µM)
2: CAMK2G
0: CAMK2A | CDK2 | CDK3 | CDK5 | CDK6 | CSK | CSNK1D | EGFR
1: CDK10
4: DYRK2
3: all other assays above

COCc1c(-c2ccc(NC(=O)Nc3cc(C(F)(F)F)ccc3F)c(F)c2)c2c(N)ncnn2c1CN1CCOCC1 (2.5 µM)
0: all assays above
